Measurements as given in PubChem BioAssay AID1347075 (National Center for Advancing Translational Sciences (NCATS), 2019).
Where “and” joins values, the source holds several entries; their conditions need not be identical. Equal entries are not always repeated. Hit rate of the full screen: of about 400,000 compounds, about 5,500 (1.4%) were called active. This list was built around the results that the source calls inconclusive (neither active nor inactive); the mix of calls is not that of the screen. Calls come from the whole dose curve; as a rule, active = well fitted cell-killing curve with a large enough effect; inconclusive = small, poorly fitted or top-dose-only effect, or effect the other way; inactive = flat fitted curve, though single readings scatter. Potencies beside an inconclusive call are fits to weak or partial responses and may not hold up.

Experiment: qHTS assay for MDR1-selective chemotherapeutics: Primary screen using the parental adenocarcinoma cell KB-3-1; note: nearly all actives have a fitted effect of over 60% in size
Settings: KB-3-1 viability, CellTiter-Glo ATP luminescence, 72 h; activity change, negative = cytotoxic: at 46.1 µM (top of the series)
Outline: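 Viability of parental KB-3-1 cells, measured by CellTiter-Glo luminescence, followed a 72 h incubation at 37 °C with pinned compounds in phenol-red-free DMEM containing 10% FBS.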
% is set by controls: 0 for no effect and ±100 for the full control effect; potency is the fitted concentration of half-maximal effect.

SMILES | Potency | activity change, negative = cytotoxic
CCOc1ccc(CCN2C(=S)N([C@@H](Cc3ccc(O)cc3)CN3CCC[C@@H]3CN3C(=S)NC[C@@H]3Cc3ccc(O)cc3)C[C@@H]2Cc2ccc(O)cc2)cc1 | inconclusive: 29.1 µM [cytotoxic, single point] | 
CCc1cccc(NC(=O)Cn2c(=O)n(CCc3ccc(OC)c(OC)c3)c(=O)c3ccccc32)c1 |  | inconclusive: -1.08%
N#CC1=C(N)Oc2cc3c(cc2C1c1ccc(Cl)cc1)OCO3 (stereo not drawn) | inactive | 
O=c1[nH]cnc2c1sc1nc3c(c(-c4ccc(Cl)cc4)c12)CCC3 | inactive | 
COc1ccc(CCn2c(N)c(C(=O)NCc3ccco3)c3nc4ccccc4nc32)cc1 | active: 7.31 µM | 
Cc1cc(C)n(-c2nc3c(c(=O)[nH]c(=O)n3C)n2CCc2ccccc2)n1 | inconclusive: 32.6 µM [cytotoxic, single point] | 
Cc1cccc(N2CCN(S(=O)(=O)c3ccc4c(c3)NC(=O)C(C)S4)CC2)c1C (stereo not drawn) | inconclusive: 32.6 µM [cytotoxic, single point] | 
C(C#CCCCCCCCCC[n+]1ccccc1)#CCCCCCCCCC[n+]1ccccc1 | active: 3.66 µM and inconclusive: 3.26 µM [cytotoxic, full curve, poor fit] | 
CC(=O)c1ccc(N2CCC(c3cc(-c4ccc(Cl)cc4)n[nH]3)CC2)c([N+](=O)[O-])c1 | inconclusive: 18.4 µM [cytotoxic, single point] | 
C=CCNC(=O)NC(=O)COC(=O)/C(C#N)=C/c1ccc(OC)cc1 | inactive | 
O=C(COC(=O)Cc1n[nH]c(=O)c2ccccc12)Nc1c(Cl)cccc1C(F)(F)F | inactive | 
Cc1c(CCC(=O)N2CCC[C@H]2C(=O)O)c(=O)oc2cc3oc4c(c3cc12)CCCC4 | inactive | 
CN1CCc2c(sc(NC(=O)c3ccc(S(=O)(=O)N4CCOCC4)cc3)c2C(N)=O)C1 | inactive | 
Clc1cccc(N2CCN(CCCN3CCN(c4ccccc4)CC3)CC2)c1 | inconclusive: 16.4 µM [cytotoxic, single point] | 
O=C(Cn1cnc(S(=O)(=O)N2CCCC2)c1)Nc1ccc(OC(F)(F)F)cc1 |  | inconclusive: 19.8%
CN(C)c1ccc(C(O)P(=O)(OC2CCCCC2)OC2CCCCC2)cc1 (stereo not drawn) | inconclusive: 0.206 µM [cytotoxic, full curve] | 
CCCCCCSc1ccc(-c2nc3ccc(Cl)cn3c2NCCCC)cc1OC | inactive | 
Cn1c(/C=C/c2ccc(Cl)cc2)c([N+](=O)[O-])c(=O)n(C)c1=O | inconclusive: 4.61 µM [cytotoxic, full curve, poor fit] | 

Shown with tabs: part of the list above
SMILES	Potency	activity change, negative = cytotoxic
COc1ccc(CCn2c(N)c(C(=O)NCc3ccco3)c3nc4ccccc4nc32)cc1	active: 7.31 µM	
C=CCNC(=O)NC(=O)COC(=O)/C(C#N)=C/c1ccc(OC)cc1	inactive	
